Measured data: PubChem BioAssay AID1259254 (NCATS, 2017)
Test: 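Gene knock-downs that lead to re-replication, shown by excess G2 DNA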 (primary screen). Cell system: human HCT116 colorectal cancer cells. Reagents: single siRNA against human genes. Duration: 3 days. Detection: 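Nuclei stained with Hoechst and imaged; cell-cycle phase assigned by DNA content; G2 share scaled per plate, non-targeting siRNA 0%, GMNN siRNA 100%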. Direction: G2 robust z-score: higher = more G2 cells, more excess DNA replication. Hit rule: 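An siRNA counts as active if its G2 robust z-score lies at least 5 MADs above the screen median; here such calls match roughly 38% of GMNN control or more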.
In all, the deposit lists about 59,000 reagents; below is an unselected part. About 1,550 of all reagents (2.6%) count as active. 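G2 share is only a proxy for re-replication; each gene was hit by three separate siRNAs, and active genes were retested.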 Reagents against one gene are numbered here. Not all columns of the deposit are shown. Not given: the amount of reagent.

G2 robust z-score, by target and reagent
FYTTD1 (forty-two-three domain containing 1): #1 1.23 inactive; #2 -0.388 inactive; #3 -0.235 inactive
SLC30A2: #1 0.545 inactive; #2 3.13 inactive; #3 0.24 inactive
PEAR1 (platelet endothelial aggregation receptor 1): #1 1.28 inactive; #2 1.8 inactive; #3 -0.559 inactive
CRLF1 (cytokine receptor like factor 1): #1 -0.519 inactive; #2 2.03 inactive; #3 -0.557 inactive
PAK5 (p21 (RAC1) activated kinase 5): #1 -0.351 inactive; #2 -0.548 inactive; #3 -0.759 inactive
ASCL2 (achaete-scute family bHLH transcription factor 2): #1 0.298 inactive; #2 3.25 inactive; #3 0.191 inactive
GZMK (granzyme K): #1 -0.999 inactive; #2 -1 inactive; #3 -0.782 inactive
MGAT1: #1 0.638 inactive; #2 6.07 active; #3 0.834 inactive
SPANXA1: #1 -0.356 inactive; #2 2.56 inactive; #3 -0.661 inactive
IGHMBP2 (immunoglobulin mu DNA binding protein 2): #1 -0.402 inactive; #2 0.147 inactive; #3 0.443 inactive
MLLT11 (MLLT11 transcription factor 7 cofactor): #1 2.64 inactive; #2 1.82 inactive; #3 -0.791 inactive
C8orf82 (chromosome 8 open reading frame 82): #1 -1.38 inactive; #2 -0.801 inactive; #3 0.104 inactive
MSI1 (musashi RNA binding protein 1): #1 2.29 inactive; #2 1.16 inactive; #3 -0.154 inactive

Records listed above with an active call, once more:
G2 robust z-score, by target and reagent
MGAT1: #2 6.07 active

More entries follow.
G2 robust z-score, by target and reagent
ACE2 (angiotensin converting enzyme 2): #1 2.72 inactive; #2 0.352 inactive; #3 -0.841 inactive
UQCRFS1: #1 -0.774 inactive; #2 -1.24 inactive; #3 -0.757 inactive
ZNF655 (zinc finger protein 655): #1 -1.09 inactive; #2 -0.00466 inactive; #3 5.53 active
TRIM40 (tripartite motif containing 40): #1 -0.933 inactive; #2 1.33 inactive; #3 -0.445 inactive
UBE2M (ubiquitin conjugating enzyme E2 M): #1 1.91 inactive; #2 0.9 inactive; #3 0.182 inactive
CIAPIN1 (cytokine induced apoptosis inhibitor 1): #1 -0.668 inactive; #2 -0.599 inactive; #3 2.08 inactive
OSMR (oncostatin M receptor): #1 0.436 inactive; #2 1.34 inactive; #3 -0.438 inactive
TEX15 (testis expressed 15, meiosis and synapsis associated): #1 0.706 inactive; #2 0.102 inactive; #3 -0.758 inactive
RAB5IF (RAB5 interacting factor): #1 -0.816 inactive; #2 0.188 inactive; #3 -0.655 inactive
SDHAF4 (succinate dehydrogenase complex assembly factor 4): #1 -0.5 inactive; #2 3.77 inactive; #3 0.328 inactive
